Results deposited as PubChem BioAssay AID602196 (INSERM, 2012)
Assay: 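Knock-downs that protect lung cancer cells from cisplatin or sensitise them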. System: human A549 lung cancer cells. Knock-down reagent: siRNA pair against human genes. Timing: 48 h transfection before cisplatin; time from cisplatin to read-out not stated. Treatment: cisplatin at a dose killing half of control-siRNA cells; exact dose and duration not given. Detection: 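Shift in cisplatin death relative to control siRNA, from -50 (all cells die) to +50 (no cells die); siRNAs harmful on their own scored 0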. Direction: two-siRNA summed score (-2 to +2): higher = both siRNAs protect from cisplatin killing; -2 means both sensitise; mean protection from cisplatin (shift in death) and protection from cisplatin (shift in death), siRNA C and protection from cisplatin (shift in death), siRNA D: higher = protection from cisplatin killing. Rule for the call: 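Each siRNA scores 0 if harmful alone by LDH or WST-1, otherwise +1 if it reduces and -1 if it increases cisplatin killing; a gene is active when both siRNAs agree (sum +2 or -2)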. Calls: active = both siRNAs shift cisplatin killing the same way; inactive = no consistent shift, or siRNA harmful alone.
The deposit covers about 23,000 reagents; this is an unselected part. Over the whole deposit, 455 (2%) were called active. 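Active includes both protection and sensitisation; some change values fall well beyond the stated -50 to +50 range.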 Entries without a mark were called inactive. Not given: the amount of reagent.

| gene | two-siRNA summed score (-2 to +2) | mean protection from cisplatin (shift in death) (%) | protection from cisplatin (shift in death), siRNA C (%) | protection from cisplatin (shift in death), siRNA D (%) |
| --- | --- | --- | --- | --- |
| C10orf95 | 0 | 11.4 | 24 | -1.2 |
| BNIP1 | 0 | -2.6 | -2.7 | -2.5 |
| MAGEA9 | 0 | 8.3 | 9.5 | 7.1 |
| PLA2G7 | -1 | -8.7 | -17.7 | 0.4 |
| SLC6A14 | 0 | -8 | -15.8 | -0.2 |
| USP24 | 0 | 7.6 | 4.1 | 11.1 |
| DNAI7 | 0 | -3.6 | 9.5 | -16.7 |
| CIART | 0 | -0.2 | -8.7 | 8.3 |
| THAP2 | 0 | -1.3 | -2.5 | -0.2 |
| LINC00324 | 1 | 1.5 | -13.8 | 16.7 |
| ING3 | 0 | 20.3 | 37.5 | 3 |
| DNM1P35 | 1 | 9.7 | -7 | 26.5 |
| NUMA1 | -1 | 6 | 25.6 | -13.5 |
| ARAP2 | 0 | -0.6 | -2.2 | 0.9 |
| DNER | 2 (active) | 26.4 | 31.3 | 21.6 |
| CLEC12A-AS1 | 0 | 9.7 | 0.8 | 18.6 |
| C9orf153 | 1 | 23.2 | 15.6 | 30.8 |
| STAC2 | 0 | 0.4 | 5 | -4.2 |
| MTRF1L | 0 | 16.9 | 13 | 20.7 |
| OR5W2 | 1 | 8.8 | 16.1 | 1.6 |
| CDHR4 | 0 | 7.2 | 17.5 | -3.1 |
| MST1 | 1 | 7.7 | -3.5 | 18.9 |
| DNAJC13 | 0 | -18.4 | -12 | -24.7 |
| POLR1F | 0 | -0.2 | -7.5 | 7.1 |

Quoted from the entries so far, 5 entries:
| gene | two-siRNA summed score (-2 to +2) | mean protection from cisplatin (shift in death) (%) | protection from cisplatin (shift in death), siRNA C (%) | protection from cisplatin (shift in death), siRNA D (%) |
| --- | --- | --- | --- | --- |
| MTRF1L | 0 | 16.9 | 13 | 20.7 |
| OR5W2 | 1 | 8.8 | 16.1 | 1.6 |
| CDHR4 | 0 | 7.2 | 17.5 | -3.1 |
| MST1 | 1 | 7.7 | -3.5 | 18.9 |
| DNAJC13 | 0 | -18.4 | -12 | -24.7 |

The results go on.
| gene | two-siRNA summed score (-2 to +2) | mean protection from cisplatin (shift in death) (%) | protection from cisplatin (shift in death), siRNA C (%) | protection from cisplatin (shift in death), siRNA D (%) |
| --- | --- | --- | --- | --- |
| HOXB1 | 0 | -9.5 | -18.3 | -0.7 |
| LOC120318 | 0 | 1.6 | 6.9 | -3.8 |
| SMU1 | 0 | -4.8 | 3.7 | -13.3 |
| NHLH2 | 0 | 2.4 | -1 | 5.9 |
| TRIM6-TRIM34 | 1 | 1.4 | -8.4 | 11.3 |
| KPNA6 | 0 | -7.6 | -8 | -7.2 |
| RAP1B | 0 | 7.8 | 3.9 | 11.7 |
| ABCA12 | 0 | -6.1 | -8.2 | -4 |
| SYNJ1 | 0 | -2.5 | -19.5 | 14.5 |
| TUBA3D | 0 | -0.8 | -21.6 | 20 |
| LOC441841 | 1 | 16.3 | 7.9 | 24.8 |
| MICB | -1 | -11.3 | -2.6 | -20 |
| ST6GAL1 | 1 | 10.7 | 14.5 | 6.9 |
| LOC387791 (retired record) | 1 | 0.7 | 12.5 | -11.1 |
| C9 | 0 | 5.2 | 3.1 | 7.2 |
| RB1CC1 | -1 | -1.3 | 12.1 | -14.6 |
| CRIPT | 1 | 8.5 | 19.7 | -2.7 |
| GCFC2 | -1 | -4.9 | 4.9 | -14.8 |
| EFL1 | -1 | -7.9 | 2.7 | -18.6 |
| CTCF | 0 | 4.6 | 11.2 | -2.1 |
| OSR2 | 0 | 3.9 | 1 | 6.8 |
| RALYL | 0 | 1.1 | 19.1 | -16.8 |
| LOC440234 | 0 | -0.7 | -17.8 | 16.4 |
| PIPOX | 0 | 2.1 | 4.5 | -0.2 |
| PPP1R9A | 0 | -3.6 | 4.4 | -11.6 |
| MRPL19 | 0 | 4.1 | 4.2 | 4 |
| STX17 | 0 | -10.4 | 1.1 | -21.9 |
| H2AC8 | 0 | 0.5 | -6.9 | 8 |
| ADCY8 | -1 | 4.3 | -7.3 | 15.9 |
| IFNA16 | 0 | -4.5 | 0.7 | -9.7 |
| C1orf116 | 0 | -2.6 | 3.3 | -8.4 |
| LOC441181 | 0 | 1.3 | 4.3 | -1.8 |
| TACR2 | 0 | 10.1 | 8.3 | 11.9 |
